The subject of the series is human ApoB-100. Put plainly: Drug treatment of humanized FRGN avatar mice, serum human ApoB-100 and albumin by ELISA. In kind it is in vivo. To be noted: same animals, 48-hour period. On the procedure:
Prior to any drug or vehicle treatment, the ratio of ApoB-100 to albumin is approximately 30% higher in the serum of avatars repopulated with hepatocytes from donor A compared to donor B (p=0.032) (FIG. 8A). Human ApoB-100 and albumin is then measured before and after treatment with DMSO (vehicle), Digoxin or Proscillaridin, over a 48-hour period of time (FIG. 8C). […] The concentration of human albumin is unaffected in the serum of the same animals (FIG. 8B).
A sandwich ELISA to detect human albumin in tissue culture supernatants and mouse sera uses a 1:100 dilution of a capture human albumin coating antibody (Bethyl laboratories, A80-129A) and a 1:85,000 dilution of a Horseradish Peroxidase (HRP) conjugated human albumin detection antibody (Bethyl laboratories, A80-129P). Bound antibody is detected using 3,3′,5,5′-tetramethylbenzidine (TMB) and the concentration of albumin in each sample is determined by comparing to a standard curve (Bethyl laboratories, RS10-110). Human lipidated apoB-100 is detected using a commercial sandwich ELISA (product code: 3715-1H-6; MabTech, Inc.) and detected using TMB. The concentration of apoB-100 is determined by comparing to a standard curve using lipidated apoB-100 supplied by the manufacturer.
Fah^−/−Rag2^−/−IL2 gr^−/−NOD (FRGN) mice are generated and supplied by Dr. Markus Grompe. […]
For orientation: In an ELISA, binding on a coated surface is turned into a signal by an enzyme label.

Turning to `CC1O[C@@H](O[C@H]2C(O)C[C@H](O[C@H]3C(O)C[C@H](OC4CC[C@@]5(C)[C@H](CC[C@@H]6[C@@H]5C[C@@H](O)[C@]5(C)[C@@H](C7=CC(=O)OC7)CC[C@]65O)C4)OC3C)OC2C)CC(O)[C@@H]1O` (some centres unmarked) [Digoxin], the “concentration of human albumin in serum” value is reported as “unaffected”.
The value for `C[C@@H]1OC(O[C@@H]2C=C3CC[C@@H]4[C@H](CC[C@]5(C)[C@@H](c6ccc(=O)oc6)CC[C@]45O)[C@@]3(C)CC2)[C@H](O)C(O)C1O` (some centres unmarked) [Proscillaridin] was “unaffected”.

These data come from patent publication US20170128480A1, “Cardiac Glycosides for the Treatment of Hypercholesterolemia” (priority 2015, published 2017).
